Data on 61 molecules can be found in PubChem BioAssay AID2685 (National Center for Advancing Translational Sciences (NCATS), 2010).

Some of the results follow. The main result of the screen is listed elsewhere. These columns were measured beside it and carry no call. Most of these compounds were active or inconclusive in the main read-out, so they are no random draw. Potencies come from curve fits of mixed quality, noted in brackets.

This experiment can be described thus: qHTS Assay for Lipid Storage Modulators in Drosophila S3 Cells.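 On cell number change: cells counted by Cell Tracker Red CMTPX staining in the red channel.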 The note with it: BODIPY lipid droplet fluorescence, 18-24 h; for cell number change: measured here: cell count max response, cells fed with added oleic acid. The procedure, abridged:
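Drosophila S3 cells got compounds at several concentrations plus oleic acid (400 uM solution). Laser-scanning cytometry with 488 nm excitation read lipid droplets at 500-530 nm and cells at 575-640 nm. Percent activity was relative to 20 uM Triacsin C.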
(Quantitative high-throughput screening tests each substance at several concentrations.)

The mark [1] stands for this setting: measured here: lipid fluorescence (Fed channel) AC50, cells fed with added oleic acid.
Where [2] appears, read: measured here: cell number channel AC50, cells fed with added oleic acid.

Usually AC50 stands for the concentration giving half of the maximal activity seen. A higher AC50 goes with weaker potency. For `N#Cc1c(SCC(=O)OCc2ccccc2)nsc1SCC(=O)OCc1ccccc1`, the cell number change worked out at 1.82%. Further, under setting [1], the AC50 was 29.1 µM [falling, single point].

Consider `O=C1CS/C(=N/N=C/c2ccco2)N1Cc1ccc(F)cc1`, for which the cell number change is 55.9%. Besides, the AC50 under setting [2] is 29.1 µM [rising, single point].

On to `Cc1ccc(N(Cc2cc3ccc(C)cc3[nH]c2=O)S(=O)(=O)c2ccccc2)cc1`, for which the cell number change is -8.4%. Besides, the AC50 under setting [1] was 14.6 µM [falling, partial curve, poor fit].

As to `CCOc1ccc(N(CC(=O)O)S(=O)(=O)c2ccc(F)cc2)cc1`, the cell number change is 3.94%.

Regarding `Cc1nc2ccccn2c1C(=O)CSc1ccc(Cl)cc1Cl`, the cell number change is 25%. For the same molecule, under setting [1], the AC50 is 6.51 µM [rising, partial curve].

On to `O=C1NC[C@@H](Cc2ccc(O)cc2)N(CCc2cccc(F)c2)C1=O`, for which the cell number change was 13.9%.

As for `CCOc1ccc(NC(=O)N2CCC(c3ccc(C)cc3)C2)cc1` (stereo not drawn), the cell number change was determined as 2.84%.

As for `C=CCn1c(SCc2ccc(OC)cc2)nnc1-c1cccnc1`, the cell number change was -3.85%. In addition, the AC50 under setting [1] is 0.13 µM [rising, full curve, poor fit].

For `O=C(/C=C/c1ccccc1)N/C(=C/c1ccccc1)C(=O)Nc1ccccc1O`, the cell number change came to 136%.

With `Cc1cc2c(c(=O)o1)C1(C(=O)N(C)c3ccccc31)C(C#N)=C(N)O2` (stereo not drawn), the cell number change is -17.5%.

Consider `OC(c1ccccc1)C1CN(Cc2ccccc2)CCC1(O)c1ccccc1` (stereo not drawn), for which the cell number change is -9.79%. Also, the AC50 under setting [1] is 0.651 µM [falling, full curve, poor fit].

In the case of `COC(=O)[C@H]1C[C@H](C(=O)O)[C@@H](C)C1(C)C`, the cell number change is -19.8%. The AC50 under setting [1] is 29.1 µM [falling, single point].

As for `CCN(CC)S(=O)(=O)c1cc(NC(=O)COC(=O)C2CCC2)ccc1C`, the cell number change was -11.5%. In addition, the AC50 under setting [1] was 7.31 µM [falling, partial curve].

Regarding `COc1cc(Cl)c(C)cc1NC(=O)c1cccc(OC)c1OC`, the cell number change amounted to 131%. Under setting [2], the AC50 is 11.6 µM [rising, partial curve].

For `O=C(CCCC(=O)OCC(=O)NC1CCCC1)Nc1ccccn1`, the cell number change was -17.2%. For the same molecule, the AC50 under setting [1] is 8.2 µM [falling, partial curve].

For the molecule `O=C(NCc1ccccc1Cl)c1cc(C(=O)C2CC2)c[nH]1`, the cell number change was -13%. The AC50 under setting [1] is 35.5 µM [falling, single point].

Consider `COc1ccc(NC(=O)C(=O)NCC2CCCN2S(=O)(=O)c2cccs2)cc1` (stereo not drawn), for which the cell number change was -11.8%.

On to `CCC(=O)Nc1ccc(-c2nnc(SCC(=O)N3CCCCC3)n2C)cc1`, for which the cell number change came out at 0.414%.

Turning to `CCN(CC)S(=O)(=O)c1ccc(C)c(NC(=O)CNc2cccc(S(=O)(=O)N3CCOCC3)c2)c1`, the AC50 under setting [1] is 6.51 µM [rising, single point].

For `COc1ccccc1N1CCN(C(=O)C2CCC(CNS(=O)(=O)c3ccc(NC(C)=O)cc3)CC2)CC1` (stereo not drawn), the cell number change is 11%. The AC50 under setting [1] was 0.206 µM [rising, full curve, poor fit].

On to `CCOC(=O)CSc1nnc2c3ccccc3n(C)c2n1`, for which the cell number change was found to be 1.29%.

For `CCOC(=O)c1ccc2c(c1)nc(SCC(=O)N1CCCCC1)n2CC`, the cell number change was -7.56%. In addition, the AC50 under setting [1] was 29.1 µM [falling, single point].

On to `O=C(COc1ccc(Cl)cc1Cl)NCCCn1ccnc1`, for which the cell number change is 13.1%. The AC50 under setting [1] was 0.58 µM [rising, full curve, poor fit].

Regarding `CCOC(=O)/C(=C\Nc1ccc(OC(F)(F)F)cc1)Sc1ncc(C(F)(F)F)cc1Cl`, the cell number change turned out to be 36.9%. Further, the AC50 under setting [2] is 1.16 µM [rising, partial curve]. Under setting [1], the concentration at half-maximal activity (AC50) was 20.6 µM [rising, single point].

On to `Cc1ccc(C(=O)c2ccc([N+](=O)[O-])cc2)c(C)c1`, for which the cell number change is -18.4%. In addition, the AC50 under setting [2] was 1.84 µM [rising, partial curve]. Further, the AC50 under setting [1] is 29.1 µM [falling, single point].

As for `N#Cc1sc2nc(N3CCCCC3)c3c(c2c1N)CCCC3`, the cell number change is -73%. The AC50 under setting [2] is 13 µM [falling, partial curve]. In addition, the AC50 under setting [1] is 14.6 µM [falling, partial curve].

As to `Cc1cc(NC(=O)CSc2nc(CC(C)(C)C)nc3c2c(=O)n(C)c(=O)n3C)no1`, the AC50 is 0.259 µM [rising, partial curve] under setting [2] and 0.259 µM [rising, partial curve] under setting [1].

As to `Cc1ccc(CC(=O)Nc2ccc(S(=O)(=O)N3CCOCC3)cc2)cc1C`, the cell number change is -49.4%. Besides, the AC50 under setting [2] is 29.1 µM [falling, partial curve, poor fit].

On to `O=C(NNC(=S)Nc1ccccc1Cl)c1ccccc1`, for which the cell number change was -11.9%. Under setting [1], the AC50 was 29.1 µM [rising, single point].

For the molecule `COc1cccc(NC(=O)Cn2nnc(C(=O)NCCc3ccccc3)c2N)c1`, under setting [1], the AC50 was 0.00461 µM [falling, full curve, poor fit].

`COc1cccc(COC(=O)C2CCN(S(=O)(=O)c3ccc(Cl)cc3)CC2)c1OC`: the cell number change amounted to 24.3%. In addition, the AC50 under setting [1] is 6.51 µM [falling, single point].

Turning to `Cc1sc2nc(COC(=O)c3ccc(N4CCCC(C)C4)c([N+](=O)[O-])c3)[nH]c(=O)c2c1C` (stereo not drawn), the cell number change was determined as 33%. Further, under setting [2], the AC50 was 2.91 µM [rising, full curve].

As to `O=C(O)c1ccc(C2SCC(=O)N2Cc2ccccc2)cc1` (stereo not drawn), the cell number change is -78%. Moreover, the AC50 under setting [2] was 29.1 µM [falling, single point]. The AC50 under setting [1] is 0.731 µM [falling, single point].

Turning to `CCOC(=O)C1C(=O)N(C(=O)c2ccc(OC)cc2)CC1c1ccccc1` (stereo not drawn), the cell number change stood at 8.43%.

On to `Cc1ccc(Sc2ncccc2COC(=O)Nc2ccccc2)cc1`, for which the cell number change was -37.8%. In addition, the AC50 under setting [1] is 13 µM [falling, partial curve, poor fit].

Regarding `COc1cc(S(=O)(=O)Nc2ccc(C)cc2)ccc1N=Cc1c(C)[nH]n(-c2ccc(C)cc2)c1=O`, the cell number change is -1.9%. In addition, under setting [1], the AC50 was 0.146 µM [rising, full curve, poor fit].

In the case of `COc1cc(NC(=O)COC(=O)CCc2cc(OC)c(OC)c(OC)c2)cc(OC)c1`, the cell number change is -3.69%.

For the molecule `C=CCn1c(SCC(=O)NC2CCCCC2)nnc1-c1ccc(OC)cc1`, the cell number change came to 26.1%. Besides, under setting [1], the AC50 was 7.31 µM [rising, partial curve].

As to `Cn1cc(C(=O)Nc2ccc(C#N)cc2)c2ccccc2c1=O`, the cell number change was 2.78%. Besides, the AC50 under setting [1] was 0.58 µM [rising, single point].

`CCOc1ccc2oc(C(=O)NCc3nc4ccccc4[nH]3)c(C)c2c1`: the cell number change was -12.4%. Moreover, the AC50 under setting [1] was 29.1 µM [falling, single point].

Consider `CC(=O)N1CCc2c(sc(NC(=O)CCS(=O)(=O)c3ccccc3)c2C#N)C1`, for which the cell number change is -0.99%.

In the case of `COc1ccc(C2c3ccc4ccccc4c3Oc3ncn(CCO)c(=N)c32)cc1` (stereo not drawn), the cell number change was 9.01%. Under setting [1], the AC50 is 0.58 µM [falling, single point].

On to `O=C(OCc1csc(-c2ccccc2)n1)c1ccccc1O`, for which the cell number change was 47.2%. Moreover, under setting [2], the AC50 is 20.6 µM [rising, single point]. Under setting [1], the AC50 was 29.1 µM [rising, single point].

Regarding `COc1cc(C(=O)Nc2ccc(N3CCCS3(=O)=O)cc2)c([N+](=O)[O-])cc1OC`, the cell number change is -29.5%. For the same molecule, the AC50 under setting [1] is 18.4 µM [falling, partial curve, poor fit].

As for `CC1CCc2cc(F)cc3c(O)c(C(=O)NCCN(C)C)c(=O)n1c23` (stereo not drawn), the cell number change is -19.1%. For the same molecule, the AC50 under setting [1] is 29.1 µM [rising, single point].

As for `COc1cc(NC(=O)C/C(C)=N/NC(=O)C(=O)NC2CCCCC2)c(OC)cc1Cl`, the cell number change was found to be 58.9%. For the same molecule, under setting [2], the AC50 was 32.6 µM [rising, partial curve, poor fit]. For the same molecule, under setting [1], the AC50 was 23.1 µM [rising, partial curve, poor fit].

As to `Cc1cc(C)n(-c2cccc(C(=O)O)c2)n1`, the cell number change came out at 19.5%. Besides, the AC50 under setting [1] was 29.1 µM [rising, single point].

`Cc1nnc(NC(=O)CN2C(=O)c3ccccc3S2(=O)=O)s1`: the cell number change is -52.1%. The AC50 under setting [2] was 0.731 µM [falling, full curve]. The AC50 under setting [1] is 29.1 µM [falling, single point].

`COc1cc(/C=N\Nc2nc(-c3cccs3)c(NC(C)=O)s2)ccc1O`: the cell number change stood at 24.5%. Further, the AC50 under setting [1] is 29.1 µM [rising, single point].

In the case of `CCOC(=O)Cn1c(=N)n(Cc2ccccc2)c2ccccc21`, the cell number change is 22.5%. Further, the AC50 under setting [1] is 25.9 µM [rising, single point].

Regarding `Cc1nc(CS(=O)(=O)c2ccccc2)cc(N2CCOCC2)n1`, the cell number change turned out to be 14.1%. Also, the AC50 under setting [1] is 0.651 µM [falling, single point].

`Cc1ccc(C(=O)c2c3ccccc3[n+]([O-])n2CCC(=O)O)cc1`: the cell number change is 0.546%. Besides, the AC50 under setting [1] was 11.6 µM [rising, partial curve].

Take `O=C(COc1ccc(S(=O)(=O)N2CCCC2)cc1)Nc1ccc(F)cc1`: the cell number change was -9.21%.

For the molecule `O=C1c2cc(S(=O)(=O)NCCCO)ccc2-c2ccc(S(=O)(=O)NCCCO)cc21`, the cell number change is -19.5%. Moreover, the AC50 under setting [1] was 20.6 µM [falling, partial curve].

With `CC(=O)NC(Cc1cccc(F)c1)C(=O)NC1CCN(c2nnnn2-c2ccccc2)CC1` (stereo not drawn), the cell number change is 22.1%. For the same molecule, the AC50 under setting [1] is 2.59 µM [rising, partial curve, poor fit].

For `CCCCOP(=O)(OCCCC)C1(NS(=O)(=O)c2ccccc2)C=CC(=O)c2ccccc21` (stereo not drawn), the cell number change is -21.7%.

With `O=C(NCC(=O)N(c1cccnc1)C(C(=O)NC1CCCCC1)c1ccccc1F)c1ccco1` (stereo not drawn), under setting [1], the AC50 was 29.1 µM [rising, single point].

As for `CC(C(=O)NC(=O)NC1CCCCC1)N1CCN(C(c2ccccc2)c2ccccc2)CC1` (stereo not drawn), the cell number change was -16.9%. Further, under setting [1], the AC50 is 14.6 µM [rising, partial curve].

Turning to `COc1ccc(C(=O)OCC(=O)NC2CC2)cc1OC`, the cell number change was found to be 7.74%. In addition, the AC50 under setting [1] was 1.64 µM [falling, partial curve].

As to `CC(=O)c1nn(-c2cccc(Br)c2)cc1C(=O)c1ccc(Cl)cc1`, the cell number change is -35.8%. Moreover, the AC50 under setting [2] is 0.184 µM [falling, full curve, poor fit]. Further, the AC50 under setting [1] was 0.164 µM [falling, full curve, poor fit].

For `CCOC(=O)CSc1nnc(-c2cccnc2)n1Cc1ccccc1`, the AC50 under setting [2] was 0.517 µM [rising, single point].
